# Library screening results

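Whole-cell assay for inhibitors of Mycobacterium tuberculosis growth, labelled Cornell in the record; the read-out is not stated. The concentration is filed as 10 mM, unlikely as a test dose, so the dose is not known. Higher means stronger inhibition (inferred from two other growth screens of the library). About 53,000 compounds were tested under these conditions; 1.7% (about 900) showed 50% or more at least once.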

Values are the deposited “Percent Effect”, in %.
How 0% and 100% were set is not recorded. Most values in the screen are low, and negative values occur.
Compounds were drawn at random from those tested, without regard to their results.

For CN1Cc2cc(F)ccc2N(CC(O)C(F)(F)F)CCC1=O (centres undefined) the result was -17.26%. With N#Cc1csc(CN(CC(=O)N2CCCC2)CC2CCCO2)c1 (centres undefined) the screen gave -5.049%. Cc1nccc(-c2ccccc2)c1C(=O)N1CCC2(CC(=O)NC2=O)C1 (centres undefined) gave -2.773%. CC(C)(C)C1SCC(=O)Nc2c1c(O)nn2C1CCCC1 (centres undefined) gave 3.078%. CS(=O)(=O)NCCc1cccc2cccnc12 read -42.45%.

With C1CN(CC2CC2)C(COCC2CC2)c2nnn(CC3CC3)c21.O=C(O)C(F)(F)F (centres undefined) the screen gave 28.44%. Result for [H][C@@]12CNC[C@]1([H])CN(C(=O)c1ccc(S(=O)(=O)NCC(F)F)cc1)C2 was 20.62%. For CC(C)c1nnc(NC(=O)CCC(=O)NCC2CCCO2)s1 (centres undefined) the result was 12.22%. COc1cc(Cl)c(C)cc1NC(=O)CCNc1ccc(C#N)cn1 read 8.581%. O=C(Nc1cccc(F)c1)N1CCC(CO)(Nc2ccccc2)CC1 read -1.504%.

For Cc1ccc(SC2CCCC2)c(C(=O)NCc2n[nH]c(=O)[nH]2)c1 the result was 18.59%. Result for CC(=O)Nc1nc(C(=O)NCc2ccc(N3CCOC(C)C3)nc2)cs1 (centres undefined) was -42.83%. For CC(C)C(=O)NCCNc1nccc(-c2cc(C(=O)O)ccn2)n1 the result was -51.01%. For CCC(Nc1nnnn1-c1ccccc1)C(=O)Nc1ccccc1C (centres undefined) the result was -46.47%. COc1ncccc1CNC(=O)CN1CCCCCC1=O read -13.33%.

Cc1ccccc1CNc1ccc(S(N)(=O)=O)c(C(F)(F)F)c1 gave 39.15%. With Cn1nc(CNC(=O)C2CC2)cc1C1CC1 the screen gave 29.19%. Cc1ccc(OCC(=O)NS(=O)(=O)Cc2ccccc2)cc1 gave 7.336%. [H][C@@]12CS(=O)(=O)C[C@]1([H])N(Cc1ccc(F)c(C)c1)CCN2CC1CC1 read -1.418%. CC(C)(C)n1ncc(NCC(O)c2ccccc2)c(Cl)c1=O (centres undefined) gave -17.43%.

Result for CNc1nc(N2C[C@H](NC(=O)CCOC)[C@@H](C3CC3)C2)nc2c1CCC2 was 1.661%. For O=C(O)c1nn(CC2CC2)c2c1CN(S(=O)(=O)c1cccnc1)CC2 the result was -49.35%. With COc1cc(C(=O)N2CCCS2(=O)=O)ccc1OC(C)C the screen gave -7.645%. Result for COCCN(C)CCN1CC2(CCN(C3CCCNC3)CC2)OC1=O (centres undefined) was 18.47%. For CC(=O)N[C@@H]1CN(Cc2nccn2C)C[C@H]1c1ccc(C)cc1 the result was -9.748%.

Result for O=C(O)C(F)(F)F.[H][C@@]12CCN(CC3CCOCC3)C[C@@]1([H])O[C@H](c1nc(C)no1)C2 was 0.9263%. O=C(NCCN1CCCC1)c1cc2c(s1)CCN2c1ncccn1 read -0.406%. O=C1CNc2ncnc(NCc3cccs3)c2N1 read 30.13%. Result for COCc1noc(C2(c3cccc(Cl)c3)CCOCC2)n1 was -65.41%. Result for COc1cc(NC(=O)C2CC(=O)N(c3cccc(Br)c3)C2)ncn1 (centres undefined) was 49.24%.

Source: ChEMBL document CHEMBL3988442, “University of Dundee, Small-Polar-MMV Screening Library” (2021).